# Laboratory results published in article doi:10.1101/396861.
# A weaker result is weaker than the reference pair of the same experiment. Tags and fusion partners may be left off the protein sequences shown.
# Target: T1, AtHYL1N (Arabidopsis thaliana) (UniProt O04492)
# T1 sequence (looked up): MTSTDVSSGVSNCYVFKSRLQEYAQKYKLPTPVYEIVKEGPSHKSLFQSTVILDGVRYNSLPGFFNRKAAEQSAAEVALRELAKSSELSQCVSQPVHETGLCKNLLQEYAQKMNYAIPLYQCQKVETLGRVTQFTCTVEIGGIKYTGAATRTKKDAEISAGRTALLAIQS
# Assay: EMSA
# Details: poly-dIdC; residues 1-170
sequence,measurement,value
GCCCTGCAACCGAGACCACGCTTATGGAGCCTGGGACGTGGTCTCGGTTG [50-nt DNA hairpin (dsDNA hairpin loop)],binding result,binds more weakly
